Assay results from the supplement of paper PMC10735217.
Structures can show the parent of a compound that is named as a salt. The list shows a part of the results. Single values are uncertain here, since repeats match poorly.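 The human kidney-derived cells carry a stably integrated construct of eight TEAD-binding elements driving luciferase, read by luminescence in a drug-repurposing library screen. A compound counts as a hit when its signal is more than five robust Z scores above the plate mean.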

Test system: HEK293A TEAD-LUC reporter
Assay: TEAD-luciferase reporter activity (YAP activation), robust Z score vs plate; higher = stronger YAP/TEAD activation
Conditions: 24 h

Cc1cc(C2CCCN2)on1 (stereo not drawn)
TEAD-luciferase reporter activity (compound concentration: 200 nM): inactive: -0.986
TEAD-luciferase reporter activity (compound concentration: 2 uM): inactive: 1.24
TEAD-luciferase reporter activity (compound concentration: 10 uM): inactive: -2.1

CN1CC2CCCC(C1)C2OC(=O)C(O)(c1ccccc1)C1CCCC1 [L-Phencynonate hydrochloride]
TEAD-luciferase reporter activity (compound concentration: 200 nM): inactive: -0.506
TEAD-luciferase reporter activity (compound concentration: 2 uM): inactive: -2.52
TEAD-luciferase reporter activity (compound concentration: 10 uM): inactive: 2.53

CNCC12CCC(c3ccccc31)c1ccccc12 [benzoctamine]
TEAD-luciferase reporter activity (compound concentration: 200 nM): inactive: -0.0191
TEAD-luciferase reporter activity (compound concentration: 2 uM): inactive: 0.736
TEAD-luciferase reporter activity (compound concentration: 10 uM): inactive: 2.28

CC1=C2[C@H]3OC(=O)[C@@H](C)[C@@H]3CC[C@@]2(C)C=CC1=O
TEAD-luciferase reporter activity (compound concentration: 200 nM): inactive: -0.59
TEAD-luciferase reporter activity (compound concentration: 2 uM): inactive: 0.0159
TEAD-luciferase reporter activity (compound concentration: 10 uM): inactive: 2.34

CCCN(CCCCN1CCNCCC1=O)C(C)Cc1ccc(S(C)(=O)=O)cc1 (stereo not drawn)
TEAD-luciferase reporter activity (compound concentration: 200 nM): inactive: -0.942
TEAD-luciferase reporter activity (compound concentration: 2 uM): inactive: -0.521
TEAD-luciferase reporter activity (compound concentration: 10 uM): inactive: 2.57

C[C@@H](NC(=O)[C@@H](N)Cc1ccc(O)cc1)C(=O)N[C@@H](Cc1ccc(F)cc1)C(=O)N[C@@H](Cc1ccccc1)C(N)=O
TEAD-luciferase reporter activity (compound concentration: 200 nM): inactive: -0.89
TEAD-luciferase reporter activity (compound concentration: 2 uM): inactive: -1.11
TEAD-luciferase reporter activity (compound concentration: 10 uM): inactive: -0.673

OC(c1ccccc1)(c1ccccc1)C1CN2CCC1CC2 (stereo not drawn)
TEAD-luciferase reporter activity (compound concentration: 200 nM): inactive: -0.877
TEAD-luciferase reporter activity (compound concentration: 2 uM): inactive: 4.14
TEAD-luciferase reporter activity (compound concentration: 10 uM): inactive: 1.02

CC1(C)C(=O)N(c2ccc(C#N)c(C(F)(F)F)c2F)C(=S)N1c1ccc(CCCc2ncco2)nc1 [Proxalutamide]
TEAD-luciferase reporter activity (compound concentration: 200 nM): inactive: 0.737
TEAD-luciferase reporter activity (compound concentration: 2 uM): inactive: 0.692
TEAD-luciferase reporter activity (compound concentration: 10 uM): inactive: -0.17

O=C(C1CCCN1S(=O)(=O)c1ccccc1)N1CCC(N2CCCC2=O)CC1 (stereo not drawn)
TEAD-luciferase reporter activity (compound concentration: 200 nM): inactive: -1.78

C[C@H](N)[C@H](O)c1ccc(O)c(O)c1
TEAD-luciferase reporter activity (compound concentration: 200 nM): inactive: -1.46
TEAD-luciferase reporter activity (compound concentration: 2 uM): inactive: -1.24
TEAD-luciferase reporter activity (compound concentration: 10 uM): inactive: -1.7

CC(=O)[C@H]1CC[C@H]2[C@@H]3CCC4C[C@](C)(O)CC[C@]4(C)[C@H]3CC[C@]12C (stereo partly drawn) [Ganaxolone]
TEAD-luciferase reporter activity (compound concentration: 200 nM): inactive: 0.627
TEAD-luciferase reporter activity (compound concentration: 2 uM): inactive: 0.138
TEAD-luciferase reporter activity (compound concentration: 10 uM): inactive: -0.122

N[C@H]1C[C@@H](C(=O)O)CC1=C(F)F
TEAD-luciferase reporter activity (compound concentration: 200 nM): inactive: -2.43
TEAD-luciferase reporter activity (compound concentration: 2 uM): inactive: -1.7
TEAD-luciferase reporter activity (compound concentration: 10 uM): inactive: 0.618

CSCCC1NC(=O)C(CC(C)C)NC(=O)C(CCCNC(=N)N)NC(=O)C(CO)NC(=O)C2CSSCC3NC(=O)C(CO)NC(=O)CNC(=O)C(C(C)O)NC(=O)C(CSSCC(N)C(=O)NC(CCCCN)C(=O)NCC(=O)NC(CCCCN)C(=O)NCC(=O)NC(C)C(=O)NC(CCCCN)C(=O)N2)NC(=O)C(CSSCC(C(N)=O)NC(=O)C(CCCCN)NC(=O)CNC(=O)C(CO)NC(=O)C(CCCNC(=N)N)NC3=O)NC(=O)C(CC(=O)O)NC(=O)C(Cc2ccc(O)cc2)NC1=O (stereo not drawn) [Ziconotide]
TEAD-luciferase reporter activity (compound concentration: 200 nM): inactive: -1.26
TEAD-luciferase reporter activity (compound concentration: 2 uM): inactive: -1.34
TEAD-luciferase reporter activity (compound concentration: 10 uM): inactive: -0.525

CCOC(=O)C1N=C(c2ccccc2Cl)c2cc(Cl)ccc2NC1=O (stereo not drawn) [ethyl dirazepate]
TEAD-luciferase reporter activity (compound concentration: 200 nM): inactive: 0.661
TEAD-luciferase reporter activity (compound concentration: 2 uM): inactive: -1.31
TEAD-luciferase reporter activity (compound concentration: 10 uM): inactive: -1.04

S=C(NC1CCCCC1)N1CCC(c2c[nH]cn2)CC1 [Thioperamide maleate]
TEAD-luciferase reporter activity (compound concentration: 200 nM): inactive: 2.68
TEAD-luciferase reporter activity (compound concentration: 10 uM): inactive: 2

S=C(NC1CCCCC1)N1CCC(c2c[nH]cn2)CC1
TEAD-luciferase reporter activity (compound concentration: 2 uM): inactive: -1.71

CCNC(=O)C1OC(n2cnc3c(N)ncnc32)C(O)C1O (stereo not drawn)
TEAD-luciferase reporter activity (compound concentration: 200 nM): inactive: -1.27
TEAD-luciferase reporter activity (compound concentration: 2 uM): inactive: -1.26
TEAD-luciferase reporter activity (compound concentration: 10 uM): inactive: -0.442

CCC[C@@H](C)C[C@H](N)CC(=O)O
TEAD-luciferase reporter activity (compound concentration: 200 nM): inactive: -0.617
TEAD-luciferase reporter activity (compound concentration: 2 uM): inactive: -1
TEAD-luciferase reporter activity (compound concentration: 10 uM): inactive: 0.0383

CC(C)NC(=O)N1CNC(=O)C12CCN(C(=O)CN)CC2
TEAD-luciferase reporter activity (compound concentration: 200 nM): inactive: 1.29
TEAD-luciferase reporter activity (compound concentration: 10 uM): inactive: -0.541

C#CCCN1CCC2(O)c3cc(O)ccc3CC1C2(C)C (stereo not drawn) [butinazocine]
TEAD-luciferase reporter activity (compound concentration: 200 nM): inactive: 1.62
TEAD-luciferase reporter activity (compound concentration: 2 uM): inactive: 0.131
TEAD-luciferase reporter activity (compound concentration: 10 uM): inactive: 1.29

N#C[C@H](O[C@@H]1O[C@H](CO[C@@H]2O[C@H](CO)[C@@H](O)[C@H](O)[C@H]2O)[C@@H](O)[C@H](O)[C@H]1O)c1ccccc1 [Amygdalin]
TEAD-luciferase reporter activity (compound concentration: 200 nM): inactive: -1.06
TEAD-luciferase reporter activity (compound concentration: 2 uM): inactive: -0.31
TEAD-luciferase reporter activity (compound concentration: 10 uM): inactive: 1.29

CN1C2CCC1CC(OC1c3ccccc3CCc3ccccc31)C2 (stereo not drawn)
TEAD-luciferase reporter activity (compound concentration: 200 nM): inactive: -0.691
TEAD-luciferase reporter activity (compound concentration: 2 uM): inactive: -1.21
TEAD-luciferase reporter activity (compound concentration: 10 uM): inactive: -0.0269

Cc1ccc(C2CC2)c(OCC2=NCCN2)c1
TEAD-luciferase reporter activity (compound concentration: 200 nM): inactive: -0.472
TEAD-luciferase reporter activity (compound concentration: 2 uM): inactive: -0.349
TEAD-luciferase reporter activity (compound concentration: 10 uM): inactive: 1.79

C[C@]12CC[C@H]3[C@@H](CC[C@@]45O[C@@H]4C(=O)C(C#N)C[C@]35C)[C@@H]1CC[C@@H]2O (stereo partly drawn) [Trilostane]
TEAD-luciferase reporter activity (compound concentration: 200 nM): inactive: -1.15
TEAD-luciferase reporter activity (compound concentration: 2 uM): inactive: -0.328
TEAD-luciferase reporter activity (compound concentration: 10 uM): inactive: -1.37

Cn1ncnc1COc1nn2c(-c3c(F)cccc3F)nnc2cc1C1CCC1
TEAD-luciferase reporter activity (compound concentration: 200 nM): inactive: -0.321
TEAD-luciferase reporter activity (compound concentration: 2 uM): inactive: 1.74
TEAD-luciferase reporter activity (compound concentration: 10 uM): inactive: -2.42

CCOC(CNC)c1cccc(C(F)(F)F)c1 (stereo not drawn)
TEAD-luciferase reporter activity (compound concentration: 200 nM): inactive: -1.54
TEAD-luciferase reporter activity (compound concentration: 2 uM): inactive: 2.03
TEAD-luciferase reporter activity (compound concentration: 10 uM): inactive: 2.84

Fc1ccc([C@@]2(Cn3cncn3)O[C@H]2c2ccccc2Cl)cc1
TEAD-luciferase reporter activity (compound concentration: 200 nM): active: 5.8
TEAD-luciferase reporter activity (compound concentration: 2 uM): inactive: -1.32
TEAD-luciferase reporter activity (compound concentration: 10 uM): inactive: 0.682

CCOC(=O)C(CCN1CCOCC1)(c1ccccc1)c1ccccc1
TEAD-luciferase reporter activity (compound concentration: 200 nM): inactive: 0.139
TEAD-luciferase reporter activity (compound concentration: 2 uM): inactive: 0.615
TEAD-luciferase reporter activity (compound concentration: 10 uM): inactive: 0.984
